Measured values taken from the supplement of paper PMC6078165.
Values are relative to the signal before dosing, not to a vehicle control; the signal also falls without drug.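 Fibroblast labels name human fibroblasts: mostly primary ones from tissues such as uterus (C12385, HUF), lung (H6013), bone (Hs27A), adrenal (HADF) and skin (WS1), plus mammary HMF and breast cancer-associated Hs343T. The cancer cells are basal-like or mesenchymal-like triple-negative breast cancer lines. The paper calls a changed response a hit when it shifts by more than 3x the replicate standard deviation. The tissue of the other fibroblasts is not given here.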

Tested on: BT20
Test: relative JC-1 red fluorescence (viability) vs pre-drug, coculture with fibroblast (fraction); higher = more viable cancer cells
Conditions: 100 µM
Description: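 JC-1 labelled TNBC cells cocultured 1:1 (1,500 cells each) with CellTrace Violet stained primary or stromal fibroblasts in 384-well plates in FluoroBrite medium, treated with one of 42 anticancer drugs at 0.1, 1, 10 or 100 uM. JC-1 red fluorescence (mitochondrial integrity in cancer cells only) was read by plate reader every 8 h for 72 h. Values are normalised to each well's pre-drug value. The stock of one drug was tenfold lower, so its dose labels may be too high.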

CC[C@]1(O)C[C@H]2CN(CCc3c([nH]c4ccccc34)[C@@](C(=O)OC)(c3cc4c(cc3OC)N(C=O)[C@H]3[C@@](O)(C(=O)OC)[C@H](OC(C)=O)[C@]5(CC)C=CCN6CC[C@]43[C@@H]65)C2)C1 [Vincristine]
relative JC-1 red fluorescence
Conditions	8 h	16 h	24 h	32 h	40 h	48 h	56 h	64 h	72 h
coculture fibroblast: C12385	0.8707	0.844	0.796	0.751	0.718	0.702	0.691	0.676	0.664
coculture fibroblast: H6013	0.985	0.949	0.951	0.943	0.924	0.897	0.8609	0.832	0.862
coculture fibroblast: H6019	0.877	0.845	0.821	0.774	0.76	0.749	0.726	0.715	0.715
coculture fibroblast: H6076	0.897	0.917	0.9	0.864	0.831	0.81	0.781	0.779	0.756
coculture fibroblast: H6231	0.927	0.982	0.9209	0.8806	0.8434	0.8073	0.782	0.762	0.738
coculture fibroblast: HADF	0.762	0.985	0.916	0.915	0.906	0.883	0.86	0.846	0.8132
coculture fibroblast: HCFa	0.98	0.962	0.859	0.95	0.943	0.797	0.796	0.799	0.81
coculture fibroblast: HCPF	0.91	0.989	0.9096	0.87877	0.8307	0.788	0.742	0.7271	0.687
coculture fibroblast: HHSteC	0.946	0.925	0.943	0.904	0.853	0.812	0.822	0.733	0.868
coculture fibroblast: HMF	0.831	0.887	0.888	0.8316	0.795	0.75	0.722	0.709	0.681
coculture fibroblast: HPFa	0.9506	0.911	0.927	0.8687	0.87262	0.854	0.84	0.826	0.801
coculture fibroblast: HUF	0.92689	0.904	0.916	0.87	0.858	0.842	0.849	0.852	0.85
coculture fibroblast: Hs5	0.826	0.979	0.917	0.878	0.838	0.803	0.779	0.753	0.733
coculture fibroblast: Hs27A	0.826	0.838	0.967	0.985	0.961	0.956	0.962	0.948	0.908
coculture fibroblast: Hs343T	0.779	0.972	0.919	0.883	0.856	0.836	0.805	0.79	0.7696
coculture fibroblast: WS1	0.874	0.855	0.829	0.79	0.759	0.75	0.736	0.722	0.708
